In this experiment the target is DHHC20 (DHHC20-linker-TEV-TwinStrep) (UniProt Q5W0Z9). The experiment can be described thus: affinity purification with mass spectrometry.

By UniProt entry, the sequences of proteins in these tests, tags left out. Where a name states a change or a piece, a line headed by the entry shows the natural chain unless it says otherwise.
UniProt Q5W0Z9: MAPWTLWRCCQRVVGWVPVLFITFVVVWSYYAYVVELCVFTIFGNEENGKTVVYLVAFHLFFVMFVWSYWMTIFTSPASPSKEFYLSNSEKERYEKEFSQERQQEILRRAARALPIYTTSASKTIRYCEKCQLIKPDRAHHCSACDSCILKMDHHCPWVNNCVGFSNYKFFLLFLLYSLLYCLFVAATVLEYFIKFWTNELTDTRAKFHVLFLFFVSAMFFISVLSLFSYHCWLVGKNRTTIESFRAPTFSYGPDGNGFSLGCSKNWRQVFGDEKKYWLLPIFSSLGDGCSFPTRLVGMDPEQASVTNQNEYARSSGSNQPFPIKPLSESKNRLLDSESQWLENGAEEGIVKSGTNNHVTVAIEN
UniProt Q9BTU6: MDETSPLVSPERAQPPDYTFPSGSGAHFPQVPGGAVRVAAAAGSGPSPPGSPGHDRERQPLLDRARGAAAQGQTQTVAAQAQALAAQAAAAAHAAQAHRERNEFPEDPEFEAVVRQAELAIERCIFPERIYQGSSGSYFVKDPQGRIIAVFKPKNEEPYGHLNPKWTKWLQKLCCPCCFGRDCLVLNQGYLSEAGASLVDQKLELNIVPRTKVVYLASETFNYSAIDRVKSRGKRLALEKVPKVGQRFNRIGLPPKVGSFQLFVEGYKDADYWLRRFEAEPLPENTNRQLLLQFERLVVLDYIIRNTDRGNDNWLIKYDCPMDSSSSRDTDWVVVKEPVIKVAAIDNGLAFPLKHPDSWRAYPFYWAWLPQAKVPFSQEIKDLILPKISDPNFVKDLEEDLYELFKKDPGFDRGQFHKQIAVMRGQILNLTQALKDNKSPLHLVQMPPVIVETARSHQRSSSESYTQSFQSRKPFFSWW

These are yes or no findings as the source states them, for the method shown. In cells and extracts the contact can be indirect. Here binding means that the protein was enriched with, or labelled near, the bait; the list need not be complete.

On to “Phosphatidylinositol 4-kinase type 2-alpha (PI4K2A) (from UniProt Q9BTU6 1-479) (enzyme)”, for which the binding result is listed as “binds”.
